Values quoted from earlier work as cited in patent US7662222B2, “Method and use of nanoparticles to bind biocides in paints” (I-Tech AB, priority 2005, dated 2010).
At least one compound was matched to its structure with a doubt left.

System: barnacles
Details: reported pharmacological compounds; cited from earlier work

CN1CCC(=C2c3ccccc3C=Cc3ccccc32)CC1 [Cyproheptadine]
effect on attachment / settlement of barnacles: inhibitory properties
